Results as given in the supplement of paper PMC10849652.
The list shows a part of the results.

Amino acid sequences for entries named in this document (tags omitted). A change or cut given only in a name is not applied to a line headed by its entry.
UniProt P46199: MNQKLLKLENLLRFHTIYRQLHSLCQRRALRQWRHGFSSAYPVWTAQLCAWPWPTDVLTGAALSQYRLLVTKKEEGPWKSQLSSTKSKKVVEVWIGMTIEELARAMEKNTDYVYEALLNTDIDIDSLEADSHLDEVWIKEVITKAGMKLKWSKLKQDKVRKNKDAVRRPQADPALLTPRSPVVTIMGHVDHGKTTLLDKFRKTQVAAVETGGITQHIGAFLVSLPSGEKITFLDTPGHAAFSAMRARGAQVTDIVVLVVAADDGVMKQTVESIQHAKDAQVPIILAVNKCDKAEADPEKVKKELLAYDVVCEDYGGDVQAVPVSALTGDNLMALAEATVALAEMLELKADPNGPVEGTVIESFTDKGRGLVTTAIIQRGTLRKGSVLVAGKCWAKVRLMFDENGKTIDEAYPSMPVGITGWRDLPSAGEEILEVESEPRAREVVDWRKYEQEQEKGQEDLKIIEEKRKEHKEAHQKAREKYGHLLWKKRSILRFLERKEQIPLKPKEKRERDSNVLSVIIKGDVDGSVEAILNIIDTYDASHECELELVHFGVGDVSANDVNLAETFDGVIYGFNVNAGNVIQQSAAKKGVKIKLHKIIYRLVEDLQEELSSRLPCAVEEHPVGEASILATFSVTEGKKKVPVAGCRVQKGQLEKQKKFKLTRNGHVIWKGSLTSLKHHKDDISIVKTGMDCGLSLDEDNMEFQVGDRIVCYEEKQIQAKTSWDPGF
UniProt Q9BTC8: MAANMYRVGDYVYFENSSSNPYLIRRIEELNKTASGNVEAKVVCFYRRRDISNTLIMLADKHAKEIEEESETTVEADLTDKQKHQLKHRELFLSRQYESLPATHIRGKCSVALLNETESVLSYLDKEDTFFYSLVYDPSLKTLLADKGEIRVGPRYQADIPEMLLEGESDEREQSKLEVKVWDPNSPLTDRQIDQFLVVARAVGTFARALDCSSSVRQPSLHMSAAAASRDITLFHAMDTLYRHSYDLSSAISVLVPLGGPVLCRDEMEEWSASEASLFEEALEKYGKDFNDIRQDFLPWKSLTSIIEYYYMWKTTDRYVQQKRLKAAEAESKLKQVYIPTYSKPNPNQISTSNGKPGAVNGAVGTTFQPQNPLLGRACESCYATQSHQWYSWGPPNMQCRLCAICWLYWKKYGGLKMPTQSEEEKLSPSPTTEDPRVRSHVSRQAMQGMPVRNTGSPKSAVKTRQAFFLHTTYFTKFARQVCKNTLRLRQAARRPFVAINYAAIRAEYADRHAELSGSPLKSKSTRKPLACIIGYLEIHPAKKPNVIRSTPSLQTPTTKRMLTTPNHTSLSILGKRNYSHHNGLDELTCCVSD
UniProt Q9C0I1: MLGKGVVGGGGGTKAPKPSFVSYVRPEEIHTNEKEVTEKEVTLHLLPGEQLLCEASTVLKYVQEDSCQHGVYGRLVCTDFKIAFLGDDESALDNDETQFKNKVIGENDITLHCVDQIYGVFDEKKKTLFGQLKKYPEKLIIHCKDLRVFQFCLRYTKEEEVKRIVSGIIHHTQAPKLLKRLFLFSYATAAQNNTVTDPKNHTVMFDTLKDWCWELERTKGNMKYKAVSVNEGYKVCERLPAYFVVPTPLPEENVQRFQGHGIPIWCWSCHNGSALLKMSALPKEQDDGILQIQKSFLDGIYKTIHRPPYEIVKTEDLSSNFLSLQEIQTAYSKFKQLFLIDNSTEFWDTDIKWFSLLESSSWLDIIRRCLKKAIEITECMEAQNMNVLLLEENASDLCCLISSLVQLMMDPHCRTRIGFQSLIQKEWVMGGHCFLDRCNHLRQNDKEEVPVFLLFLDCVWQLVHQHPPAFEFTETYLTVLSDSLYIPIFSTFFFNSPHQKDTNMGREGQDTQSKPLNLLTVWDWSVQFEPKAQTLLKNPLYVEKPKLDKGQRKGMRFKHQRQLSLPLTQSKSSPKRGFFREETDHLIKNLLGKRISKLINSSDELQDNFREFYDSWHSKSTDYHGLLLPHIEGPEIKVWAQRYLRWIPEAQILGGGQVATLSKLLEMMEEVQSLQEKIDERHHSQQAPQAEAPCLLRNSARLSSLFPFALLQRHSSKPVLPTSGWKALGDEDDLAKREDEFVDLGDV
UniProt P42898: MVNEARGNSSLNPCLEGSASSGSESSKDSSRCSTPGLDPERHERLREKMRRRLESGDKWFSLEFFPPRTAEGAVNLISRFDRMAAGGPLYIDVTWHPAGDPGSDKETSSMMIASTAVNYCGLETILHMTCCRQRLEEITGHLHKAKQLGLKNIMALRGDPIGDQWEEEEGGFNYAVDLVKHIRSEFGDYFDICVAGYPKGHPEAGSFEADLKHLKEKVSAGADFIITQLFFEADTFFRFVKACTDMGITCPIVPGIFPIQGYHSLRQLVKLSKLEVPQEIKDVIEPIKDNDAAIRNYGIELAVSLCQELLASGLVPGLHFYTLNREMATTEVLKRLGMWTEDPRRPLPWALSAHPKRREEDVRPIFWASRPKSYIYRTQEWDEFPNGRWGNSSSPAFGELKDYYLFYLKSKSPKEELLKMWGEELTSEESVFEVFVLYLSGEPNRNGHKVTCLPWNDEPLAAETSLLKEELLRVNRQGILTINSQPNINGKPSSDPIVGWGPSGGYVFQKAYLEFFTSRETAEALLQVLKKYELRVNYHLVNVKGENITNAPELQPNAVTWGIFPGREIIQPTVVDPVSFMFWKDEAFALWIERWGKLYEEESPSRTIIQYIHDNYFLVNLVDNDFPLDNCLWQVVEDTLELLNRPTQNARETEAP
UniProt P49914: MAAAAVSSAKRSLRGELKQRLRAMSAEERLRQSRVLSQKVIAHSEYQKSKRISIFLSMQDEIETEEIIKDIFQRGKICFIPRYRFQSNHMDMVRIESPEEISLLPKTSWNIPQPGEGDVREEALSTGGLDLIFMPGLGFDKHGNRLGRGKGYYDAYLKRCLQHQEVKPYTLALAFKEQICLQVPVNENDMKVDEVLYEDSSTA
UniProt O75431: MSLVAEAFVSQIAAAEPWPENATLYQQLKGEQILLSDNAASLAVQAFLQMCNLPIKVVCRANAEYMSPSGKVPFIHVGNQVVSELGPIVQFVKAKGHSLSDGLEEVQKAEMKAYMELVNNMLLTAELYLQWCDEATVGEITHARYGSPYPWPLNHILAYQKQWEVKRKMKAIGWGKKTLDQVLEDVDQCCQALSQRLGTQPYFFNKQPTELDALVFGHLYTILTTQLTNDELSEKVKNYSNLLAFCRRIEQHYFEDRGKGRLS
UniProt Q9P0P8: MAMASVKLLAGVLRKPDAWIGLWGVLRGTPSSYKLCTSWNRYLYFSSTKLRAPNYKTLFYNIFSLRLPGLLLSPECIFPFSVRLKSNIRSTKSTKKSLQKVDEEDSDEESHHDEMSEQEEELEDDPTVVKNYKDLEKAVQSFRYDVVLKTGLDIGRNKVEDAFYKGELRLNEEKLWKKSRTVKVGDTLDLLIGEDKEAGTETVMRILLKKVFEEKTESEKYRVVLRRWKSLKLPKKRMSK
UniProt Q6P444: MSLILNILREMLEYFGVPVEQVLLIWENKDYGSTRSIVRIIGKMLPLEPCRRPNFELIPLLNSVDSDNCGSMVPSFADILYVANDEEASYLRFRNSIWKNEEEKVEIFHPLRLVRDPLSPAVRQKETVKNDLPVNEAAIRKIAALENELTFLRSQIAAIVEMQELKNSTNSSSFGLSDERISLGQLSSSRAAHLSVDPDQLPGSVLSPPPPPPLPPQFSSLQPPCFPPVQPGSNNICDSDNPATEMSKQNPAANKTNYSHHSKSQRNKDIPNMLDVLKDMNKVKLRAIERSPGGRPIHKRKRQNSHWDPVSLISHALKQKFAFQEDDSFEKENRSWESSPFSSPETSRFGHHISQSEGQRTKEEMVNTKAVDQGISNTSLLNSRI
MTHFD1, A0A384N5Y3, UniProt A0A384N5Y3, whole entry, looked up: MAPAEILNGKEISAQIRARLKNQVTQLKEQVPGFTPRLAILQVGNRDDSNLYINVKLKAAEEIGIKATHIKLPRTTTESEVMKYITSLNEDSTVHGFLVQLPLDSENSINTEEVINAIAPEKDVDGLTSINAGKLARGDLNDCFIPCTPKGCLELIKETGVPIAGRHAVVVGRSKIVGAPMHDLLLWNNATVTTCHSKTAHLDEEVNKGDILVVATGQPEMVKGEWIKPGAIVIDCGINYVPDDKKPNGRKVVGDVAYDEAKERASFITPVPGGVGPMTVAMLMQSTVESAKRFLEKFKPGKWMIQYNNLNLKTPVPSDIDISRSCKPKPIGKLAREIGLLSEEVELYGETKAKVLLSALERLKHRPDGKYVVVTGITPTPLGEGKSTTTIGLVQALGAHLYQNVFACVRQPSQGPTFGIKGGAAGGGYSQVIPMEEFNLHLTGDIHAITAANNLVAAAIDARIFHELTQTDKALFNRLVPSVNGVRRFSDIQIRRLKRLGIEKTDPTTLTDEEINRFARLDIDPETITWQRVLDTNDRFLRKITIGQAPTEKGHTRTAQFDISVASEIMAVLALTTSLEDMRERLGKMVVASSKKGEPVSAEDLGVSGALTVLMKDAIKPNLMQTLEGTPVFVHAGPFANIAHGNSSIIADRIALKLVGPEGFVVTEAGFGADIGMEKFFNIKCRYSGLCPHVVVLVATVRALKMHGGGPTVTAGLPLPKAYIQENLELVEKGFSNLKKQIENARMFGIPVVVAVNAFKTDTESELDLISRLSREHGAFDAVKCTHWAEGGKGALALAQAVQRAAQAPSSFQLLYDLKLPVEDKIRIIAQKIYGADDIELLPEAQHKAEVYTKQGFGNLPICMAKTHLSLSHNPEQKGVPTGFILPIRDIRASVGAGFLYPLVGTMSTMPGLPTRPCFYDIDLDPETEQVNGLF

Tests used:
Assay in all cases: log2 fold change, soluble protein after heating vs DMSO (PISA); higher = thermal stabilisation; K562 lysate, 10 uM; active = over 0.2 and 3.5 SD of the protein, either way, in both replicates (recomputed)
[1] = compound: C#Cc1cccc(Nc2ncnc3cc(OCCOC)c(OCCOC)cc23)c1 [erlotinib]
How it was run: (§1)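 To prepare the extract, K562 pellets were dounce-homogenised in PBS pH 7.4 with 1 mM MgCl2, giving crude material at 1 mg/mL protein. This was treated with 10 μM compound for 30 min, then heated in aliquots for 3 min over 48°C-58°C before pooling and addition of NP-40 to 0.5% at 4°C. Centrifugation at 21,000xg for 90 min left soluble protein in the supernatant, which TMTpro 16plex LC-MS/MS quantified with equalised channel sums. Results are log-two fold changes in thermal stability compared with solvent controls, from duplicates.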

[2] = compound: C/C(=N\NC(=O)C1=CC(=CC=C1)S(=O)(=O)N2CCOCC2)/C3=C(C=CC(=C3)Cl)O
How it was run: as §1

[3] = compound: C1=CC(=CC=C1C2=NC3=C(N2)C=C(C=C3)C(=O)N)OC4=CC=C(C=C4)Cl
How it was run: as §1

[4] = compound: C1=CC2=C(C=CC(=C2)/C=C\3/C(=O)NC(=NCC4=CC=CS4)S3)N=C1
How it was run: as §1

[5] = compound: C1=CC2=NC=CN=C2C=C1/C=C/3\C(=O)NC(=O)S3
How it was run: as §1

[6] = compound: C1=CC=C(C=C1)C2=NC(=C(N2)C3=CC=NC=C3)C4=CC(=C(C=C4)Cl)O
How it was run: as §1

[7] = compound: C1=CC=C2C(=C1)C3=NNC4=CC=CC(=C43)C2=O
How it was run: as §1

[8] = compound: C1CCN(C1)C(=O)NC2=CC=CC(=C2)NC3=NC=C(C(=N3)NCCC4=CN=CN4)Br
How it was run: as §1

[9] = compound: C1CN(CCC1(CC2=CC=C(C=C2)Cl)N)C3=NC=NC4=C3C=CN4
How it was run: as §1

[10] = compound: C1COCCN1CCN2C3=CC=CC=C3N=C2NC(=O)C4=CC(=CC=C4)[N+](=O)[O-] [IRAK-1-4 Inhibitor I]
How it was run: as §1

[11] = compound: C=CC(=O)N1CCC[C@@H](n2nc(-c3ccc(Oc4ccccc4)cc3)c3c(N)ncnc32)C1 [ibrutinib]
How it was run: as §1

[12] = compound: CC(=O)c1cnc2ccc(-c3cc(Cl)c(O)c(Cl)c3)nc2c1N[C@H]1CC[C@H](CN(C)C)CC1
How it was run: as §1

[13] = compound: CC(C)(C)Cn1c(N)nc2ccc(-c3[nH]c(C(C)(C)C)nc3-c3ccc(F)cc3)nc21 [ralimetinib]
How it was run: as §1

[14] = compound: CC(C)(O)CC(=O)NCCn1ccc2ncnc(Nc3ccc(Oc4cccc(C(F)(F)F)c4)c(Cl)c3)c21
How it was run: as §1

[15] = compound: CC(C)C1=C2N=C(C=C(N2N=C1)NCC3=CC=CC=C3)NCCCCCCN
How it was run: as §1

[16] = compound: CC1=C(C(CC(=O)N1)C2=CC=C(C=C2)C(F)(F)F)C(=O)NC3=C(C=C4C(=C3)C=NN4)F
How it was run: as §1

[17] = compound: CC1=C(C2=C(C=C1)C(=O)C3=CC=CC=C3N2CCCN)C
How it was run: as §1

[18] = compound: CC1=C(C=C(C=C1)NC(=O)C2=CC(=CC=C2)C(C)(C)C#N)NC3=CC4=C(C=C3)N=CN(C4=O)C
How it was run: as §1

[19] = compound: CC1=C(C=C(C=C1)NC(=O)C2=CC(=CC=C2)N(C)C)NC(=O)C3=CC=C(C=C3)O
How it was run: as §1

[20] = compound: CC1=CC=C(C=C1)SC2=C3C=C(SC3=CN=C2)C(=O)N
How it was run: as §1

Measured: log2 fold change

MTIF2 (UniProt P46199)
inactive: [1] -0.015 | [2] -0.212 | [3] 0.01 | [4] -0.022 | [5] 0.008 | [6] -0.001 | [7] -0.031 | [8] -0.036 | [9] -0.025 | [10] -0.038 | [11] -0.008 | [12] 0.01 | [13] 0.027 | [14] -0.012 | [15] 0.017 | [16] -0.009 | [17] -0.026 | [18] 0.015 | [19] 0.041 | [20] -0.016

MTA3 (UniProt Q9BTC8)
inactive: [1] 0.025 | [2] -0.051 | [3] 0.02 | [4] -0.022 | [5] -0.078 | [6] -0.046 | [7] 0 | [8] 0.004 | [9] 0.025 | [10] 0.012 | [11] -0.048 | [12] -0.023 | [13] 0.009 | [14] 0.062 | [15] 0.01 | [16] -0.047 | [17] 0.031 | [18] -0.053 | [19] -0.052 | [20] -0.018

MRPS7 (UniProt Q9Y2R9)
inactive: [1] 0.045 | [2] 0.025 | [3] 0.081 | [4] 0.034 | [5] -0.028 | [6] 0 | [7] 0.007 | [8] -0.016 | [9] -0.044 | [10] 0.004 | [11] 0.003 | [12] -0.004 | [13] 0.019 | [14] -0.052 | [15] 0.063 | [16] 0.029 | [17] -0.071 | [18] 0.052 | [19] 0.048 | [20] 0.014

MRPL51 (UniProt Q4U2R6)
inactive: [1] -0.067 | [2] -0.05 | [3] -0.027 | [4] 0.08 | [5] -0.036 | [6] -0.039 | [7] 0.036 | [8] -0.006 | [9] -0.09 | [10] 0.001 | [11] 0.02 | [12] -0.005 | [13] 0.048 | [14] 0.011 | [15] -0.038 | [16] 0.066 | [17] 0.006 | [18] -0.062 | [19] 0.051 | [20] 0.017

MTMR12 (UniProt Q9C0I1)
inactive: [1] -0.014 | [2] -0.008 | [3] -0.015 | [4] 0.032 | [5] -0.013 | [6] 0.022 | [7] 0.026 | [8] -0.019 | [9] 0.017 | [10] 0.017 | [11] 0.053 | [12] -0.01 | [13] 0.006 | [14] -0.019 | [15] -0.024 | [16] 0.039 | [17] -0.051 | [18] -0.025 | [19] -0.004 | [20] -0.027

MTHFR isoform 2 (UniProt P42898)
inactive: [1] -0.003 | [2] -0.145 | [3] -0.009 | [4] 0.069 | [5] -0.019 | [6] -0.024 | [7] 0.068 | [8] -0.012 | [9] -0.005 | [10] -0.021 | [11] -0.01 | [12] -0.005 | [13] 0.02 | [14] -0.004 | [15] 0.008 | [16] 0.015 | [17] -0.003 | [18] 0.017 | [19] 0.021 | [20] -0.006

MT-CO1 (UniProt P00395)
inactive: [1] -0.021 | [2] 0.069 | [3] 0.063 | [4] -0.065 | [5] 0.027 | [6] -0.033 | [7] 0.08 | [8] 0.003 | [9] -0.049 | [10] 0.068 | [11] 0.044 | [12] 0.027 | [13] 0.005 | [14] -0.038 | [15] -0.003 | [16] 0.066 | [17] -0.014 | [18] -0.003 | [19] -0.022 | [20] 0.03

MTHFS (UniProt P49914)
inactive: [1] -0.041 | [2] -0.084 | [3] 0.03 | [4] 0.026 | [5] 0.037 | [6] 0.039 | [7] -0.016 | [8] -0.031 | [9] 0.04 | [10] -0.037 | [11] -0.013 | [12] -0.021 | [13] 0.004 | [14] 0.005 | [15] 0.003 | [16] -0.009 | [17] -0.001 | [18] 0.077 | [19] 0.064 | [20] -0.034

MTMR1 (UniProt Q13613)
inactive: [1] 0.044 | [2] 0.134 | [3] 0.105 | [4] 0.021 | [5] -0.051 | [6] 0.058 | [7] -0.059 | [8] -0.013 | [9] 0.067 | [10] -0.039 | [11] -0.006 | [12] 0.036 | [13] 0.042 | [14] -0.034 | [15] -0.031 | [16] 0.008 | [17] 0.007 | [18] -0.041 | [19] 0.007 | [20] -0.027

MRPL44 (UniProt Q9H9J2)
inactive: [1] -0.005 | [2] 0.008 | [3] 0.051 | [4] 0.02 | [5] -0.067 | [6] 0.053 | [7] 0.004 | [8] -0.001 | [9] 0.018 | [10] -0.024 | [11] 0.134 | [12] -0.068 | [13] 0.018 | [14] -0.022 | [15] 0.018 | [16] -0.039 | [17] -0.045 | [18] -0.017 | [19] 0.051 | [20] 0.008

MRTO4 (UniProt Q9UKD2)
inactive: [1] -0.019 | [2] -0.001 | [3] -0.007 | [4] -0.003 | [5] -0.009 | [6] 0.001 | [7] 0.019 | [8] -0.02 | [9] -0.01 | [10] -0.033 | [11] 0.023 | [12] -0.014 | [13] 0.012 | [14] 0.001 | [15] 0.015 | [16] -0.001 | [17] -0.015 | [18] -0.037 | [19] 0.016 | [20] 0.016

2 entries picked at random from the list so far, as already listed:
MTMR12 (UniProt Q9C0I1)
inactive: [1] -0.014 | [2] -0.008 | [3] -0.015 | [4] 0.032 | [5] -0.013 | [6] 0.022 | [7] 0.026 | [8] -0.019 | [9] 0.017 | [10] 0.017 | [11] 0.053 | [12] -0.01 | [13] 0.006 | [14] -0.019 | [15] -0.024 | [16] 0.039 | [17] -0.051 | [18] -0.025 | [19] -0.004 | [20] -0.027

MTA3 (UniProt Q9BTC8)
inactive: [1] 0.025 | [2] -0.051 | [3] 0.02 | [4] -0.022 | [5] -0.078 | [6] -0.046 | [7] 0 | [8] 0.004 | [9] 0.025 | [10] 0.012 | [11] -0.048 | [12] -0.023 | [13] 0.009 | [14] 0.062 | [15] 0.01 | [16] -0.047 | [17] 0.031 | [18] -0.053 | [19] -0.052 | [20] -0.018

The listing continues.

MRPL49 (UniProt Q13405)
inactive: [1] -0.002 | [2] 0.091 | [3] -0.001 | [4] 0.036 | [5] 0.054 | [6] 0.009 | [7] -0.023 | [8] -0.037 | [9] 0.014 | [10] -0.007 | [11] 0.019 | [12] -0.062 | [13] -0.028 | [14] -0.017 | [15] -0.003 | [16] -0.151 | [17] 0.004 | [18] 0.026 | [19] -0.03 | [20] 0.024

MTX2 (UniProt O75431)
inactive: [1] 0.034 | [2] 0.028 | [3] 0.007 | [4] -0.015 | [5] 0.012 | [6] -0.017 | [7] -0.084 | [8] -0.007 | [9] 0.031 | [10] -0.015 | [11] 0.051 | [12] 0.014 | [13] -0.001 | [14] -0.003 | [15] 0.003 | [16] -0.018 | [17] 0.021 | [18] -0.014 | [19] 0.007 | [20] -0.003

MTRES1 (UniProt Q9P0P8)
inactive: [1] 0 | [2] 0.142 | [3] 0.01 | [4] -0.062 | [5] -0.043 | [6] -0.016 | [7] 0.005 | [8] 0.05 | [9] 0.004 | [10] 0.003 | [11] -0.06 | [12] -0.042 | [13] 0.003 | [14] 0.035 | [15] -0.051 | [16] 0.091 | [17] -0.093 | [18] 0.027 | [19] 0.033 | [20] -0.011

MTFR2 (UniProt Q6P444)
inactive: [1] 0.031 | [2] -0.022 | [3] -0.014 | [4] 0.01 | [5] 0.022 | [6] 0.056 | [7] -0.037 | [8] -0.006 | [9] 0.052 | [10] 0.03 | [11] 0.022 | [12] 0.1 | [13] 0.041 | [14] -0.086 | [15] 0.002 | [16] 0.013 | [17] 0.031 | [18] -0.007 | [19] 0.019 | [20] 0.109

MTHFD1, A0A384N5Y3
inactive: [1] 0.024 | [2] 0.041 | [3] -0.004 | [4] 0.04 | [5] 0.029 | [6] 0.02 | [7] -0.039 | [8] 0.021 | [9] 0.015 | [10] 0.002 | [11] -0.014 | [12] -0.001 | [13] 0.028 | [14] 0.028 | [15] 0.03 | [16] -0.033 | [17] -0.032 | [18] 0.003 | [19] 0.047 | [20] 0.014
